Reference: PubChem BioAssay AID602196 (INSERM, 2012)
Shown is one part, drawn at random, of about 23,000 deposited reagents. In the full data, 455 (2%) were called active. 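Active includes both protection and sensitisation; some change values fall well beyond the stated -50 to +50 range.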 Entries without a mark were called inactive. Further read-outs or replicates are left out here. Not stated in the record: the amount of reagent.

Assay: 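Genes whose knock-down alters cisplatin killing of lung cancer cells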
System: human A549 lung cancer cells
Reagents: siRNA pair against human genes
Time to read-out: 48 h transfection before cisplatin; time from cisplatin to read-out not stated
Treatment: cisplatin at a dose killing half of control-siRNA cells; exact dose and duration not given
Measured: 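Cisplatin cell death as a shift from the 50% death seen with control siRNA; siRNAs toxic or growth-blocking alone scored 0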
Direction: two-siRNA summed score (-2 to +2): higher = both siRNAs protect from cisplatin killing; -2 means both sensitise; mean protection from cisplatin (shift in death): higher = protection from cisplatin killing
Call rule: 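siRNAs harmful alone (LDH or WST-1) get 0; others get +1 for less and -1 for more cisplatin killing; genes are active when the two siRNAs give the same sign, summing to ±2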
Calls: active = both siRNAs shift cisplatin killing the same way; inactive = no consistent shift, or siRNA harmful alone

AARS2: two-siRNA summed score (-2 to +2) = -1; mean protection from cisplatin (shift in death) (%) = -8
KRTAP1-3: two-siRNA summed score (-2 to +2) = 0; mean protection from cisplatin (shift in death) (%) = -1.2
TRABD2B: two-siRNA summed score (-2 to +2) = 0; mean protection from cisplatin (shift in death) (%) = 8.1
ST3GAL2: two-siRNA summed score (-2 to +2) = 1; mean protection from cisplatin (shift in death) (%) = 13.8
RILPL2: two-siRNA summed score (-2 to +2) = 0; mean protection from cisplatin (shift in death) (%) = 8.9
LOC400161: two-siRNA summed score (-2 to +2) = 0; mean protection from cisplatin (shift in death) (%) = 9.6
BMERB1: two-siRNA summed score (-2 to +2) = 0; mean protection from cisplatin (shift in death) (%) = 4.3
OR9A4: two-siRNA summed score (-2 to +2) = 0; mean protection from cisplatin (shift in death) (%) = -5.3
SNTG1: two-siRNA summed score (-2 to +2) = 0; mean protection from cisplatin (shift in death) (%) = -1.5
CHN2: two-siRNA summed score (-2 to +2) = 0; mean protection from cisplatin (shift in death) (%) = -3.3
ATP6V0C: two-siRNA summed score (-2 to +2) = 0; mean protection from cisplatin (shift in death) (%) = 3.3
HLA-DPB1: two-siRNA summed score (-2 to +2) = 0; mean protection from cisplatin (shift in death) (%) = 3.7
